Assay results from PubChem BioAssay AID2685 (National Center for Advancing Translational Sciences (NCATS), 2010).
The campaign covered roughly 320,000 compounds. About 2,100 (0.66%) were called active. This list was built around the results that the source calls inconclusive (neither active nor inactive); the mix of calls is not that of the screen. Calls follow the shape of the dose curve; as a rule, active = well fitted inhibition curve with a large enough effect in the signal ratio, with a control signal flat (not every such curve was filed as active); inconclusive = small, poorly fitted or top-dose-only effect, or effect the other way, or a change in a side signal; inactive = flat fitted curve, though single readings scatter; the % refers to the signal ratio. Potencies beside an inconclusive call are fits to weak or partial responses and may not hold up.

Assay: qHTS Assay for Lipid Storage Modulators in Drosophila S3 Cells
Conditions: BODIPY lipid droplet fluorescence, 18-24 h, cells fed with added oleic acid; lipid storage change, negative = inhibition: at 46.1 µM (top of the series) unless noted
Summary of the method: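 Laser-scanning cytometry quantifies lipid droplet accumulation (500–530 nm total intensity; droplet/cell object ratio) in oleic acid-fed (400 uM added) Drosophila S3 cells treated with a concentration series. 20 uM Triacsin C defined 100% inhibition.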
% is scaled to controls: 0 for no effect and ±100 for the full control effect; potency is read from the fitted curve at half-maximal effect.

Compound	Potency	lipid storage change, negative = inhibition
COc1ccc2c(c1)c(C(=O)N/N=C/c1cccs1)c(C)n2C	inconclusive: 6.51 µM [activator, single point]	
OCC(Cc1ccccc1)NCc1ccccc1C(F)(F)F (configuration not stated)		inconclusive: -18.6%
COC(=O)[C@H](CCSC)NC(=O)NCc1ccccc1F		inactive
CCOc1ccc2c(c1)N(C(=O)CN1C(=O)CCC1=O)C(C)(C)C=C2C		inconclusive: 22.6%
COc1cc(C(=O)NCc2ccc(-c3nc4ccccc4s3)cc2)cc(OC)c1OC	inconclusive: 29.1 µM [cytotoxic, single point]	
CN(C(=O)COC(=O)CNC(=O)c1ccc(Cl)cc1Cl)c1ccccc1		inconclusive: -51.1%
CCO[C@@H]1OC(C(=O)Nc2ccccc2)=C[C@H](c2ccc(Br)cc2)[C@H]1CCCO		inconclusive: -26.1%
COc1ccc(Cl)cc1C(=O)NCCCSc1ccccc1	inconclusive: 5.17 µM [falling, full curve, poor fit]	
CN(CCc1ccccn1)C1CC(=O)N(c2ccc(Cl)cc2)C1=O (configuration not stated)	inconclusive: 0.731 µM [falling, single point]	
O=C1CC(c2ccc(F)cc2)C2=C(CCCC2=O)N1 (configuration not stated)		inconclusive: 6.93%
COc1cc(CNCCSc2nnnn2C)cc(Br)c1OCc1ccc(F)cc1		inconclusive: 39.8%
CN(C)c1ccc(-c2nn3c(-c4ccc(Cl)cc4Cl)nnc3s2)cc1	inconclusive: 1.16 µM [rising, partial curve]	
CCOCCn1c(CN2CCN(c3cccc(Cl)c3)CC2)nc2c1c(=O)n(C)c(=O)n2C		inconclusive: 69.9%
CNC(=O)C1CCN(S(=O)(=O)c2c(C)noc2/C=C/c2ccc(OC)cc2)CC1	inconclusive: 1.64 µM [activator, full curve]	
CCCNC(=O)c1ccc2c(c1)CCN2S(C)(=O)=O		inconclusive: -31.9% [at 0.00295 µM]
O=C1/C(=C/c2cccc(O)c2)SC(=S)N1CC1CCCO1 (configuration not stated)		inconclusive: -13.8%
CNC(=O)c1oc(-c2ccc(Cl)cc2)nc1C	active: 2.59 µM	
Cc1ccccc1-c1nc(CS(=O)CC(=O)NC2CCCCC2)c(C)o1 (configuration not stated)		inconclusive: -22.3%
Cc1ccccc1C(=O)NNC(=S)NC(=O)c1cccs1		inconclusive: -194%
COc1ccc(S(=O)(=O)/N=C2/NC(=O)/C(=C\c3cc(OC)c(OC)cc3[N+](=O)[O-])S2)cc1	inconclusive: 7.31 µM [falling, single point]	
CCN(CC)CCOC(=O)C1(C2CCCCC2)CCCCC1		inconclusive: -20.4%
CCCCN(CCCC)Cc1ccc(C(=O)NNC(=O)Nc2ccc(Cl)cc2)o1		inconclusive: -14.7%
COc1cc(CNC(=O)CCC(=O)N2C[C@H]3C[C@H](C2)c2cccc(=O)n2C3)cc(OC)c1OC		inconclusive: 6.07%
COc1cc(OC)c(NC(=O)C2CC(=O)N(c3ccc4c(c3)OCCO4)C2)cc1Cl (configuration not stated)		inconclusive: 13.3%
C=C(C)C1CC=C(C)/C(=N/NC(=O)CNc2ccc(OCC)cc2)C1 (configuration not stated)		inconclusive: -26.4%
COc1ccc(Oc2cn[nH]c2-c2ccc(O)cc2O)cc1	inconclusive: 18.4 µM [activator, single point]	

Another view of four compounds above.
Compound,Potency,"lipid storage change, negative = inhibition"
CN(C)c1ccc(-c2nn3c(-c4ccc(Cl)cc4Cl)nnc3s2)cc1,"inconclusive: 1.16 µM [rising, partial curve]",
CNC(=O)c1oc(-c2ccc(Cl)cc2)nc1C,active: 2.59 µM,
COc1cc(CNC(=O)CCC(=O)N2C[C@H]3C[C@H](C2)c2cccc(=O)n2C3)cc(OC)c1OC,,inconclusive: 6.07%
C=C(C)C1CC=C(C)/C(=N/NC(=O)CNc2ccc(OCC)cc2)C1 (configuration not stated),,inconclusive: -26.4%

The list continues.

Compound	Potency	lipid storage change, negative = inhibition
Nc1nc(Cl)cc(NCCc2ccc(O)cc2)n1		inconclusive: 32.8%
CCn1c(CSc2nnc(-c3ccoc3C)n2C)nc2cc(S(=O)(=O)N(C)C)ccc21	inconclusive: 18.4 µM [activator, single point]	
O=C(c1cnc2sccn2c1=O)N(Cc1ccccc1)c1ccccn1		inconclusive: 6.58%
O=C1C(CCCNC(=S)NCc2ccccc2)NC(=S)N1Cc1ccccc1 (configuration not stated)	inconclusive: 16.4 µM [cytotoxic, single point]	
Cc1ccc(C(=O)Nc2ccccc2N2CCN(C(=O)C(C)C)CC2)cc1		inconclusive: 132%
CCCn1nnnc1SCC(=O)N1CCN(C(=O)c2ccco2)CC1		inconclusive: 33.1%
Cc1ccccc1-n1nc(CSc2nc3ccccc3[nH]2)c(-c2ccccc2)c1N		inconclusive: -23.9%
CCOC(=O)c1cc2sccc2n1CC(=O)OC	inconclusive: 16.4 µM [activator, single point]	
Cc1cnc(C(=O)OCC(=O)C23CC4CC(CC(C4)C2)C3)cn1		inconclusive: 75.1%
C=CCN(CC=C)S(=O)(=O)c1ccc(NC(=S)NC(=O)c2ccco2)cc1		inconclusive: 41.4%
CN(C)CCN(C(=O)c1ccc(Br)s1)c1nc2cc3c(cc2s1)OCCO3		inconclusive: -6.7%
CC(C)(C)NC(=O)COc1coc(CN2CCN(C(=O)c3ccco3)CC2)cc1=O	inconclusive: 0.461 µM [activator, full curve]	
NC(=O)Nc1ccc(Oc2c(F)c(F)c(F)c(F)c2F)cc1		inconclusive: -34.7%
Cc1ccc(S(=O)(=O)N(CC(=O)NCc2ccco2)C2CCCCC2)cc1		inconclusive: -16.2%
COCC(=O)Nc1nc(-c2ccc(-c3ccccc3)cc2)cs1		inactive
S=C(NCc1ccc2[nH]c3c(c2c1)CCCC3)Nc1ccccc1Cl	inconclusive: 29.1 µM [cytotoxic, single point]	
CCCc1cc2c(cc1NC(=O)c1ccccc1F)OCO2		inconclusive: 14.3%
Cc1ccc(-c2cc(C(=O)N/N=C/C=C/c3ccccc3)n[nH]2)s1		inconclusive: 26.5%
O=C(N/N=C/C(Cl)=C/c1ccccc1)c1ccccn1		inconclusive: 0.274%
COc1ccccc1N1CCN(C(=O)c2cc3c(s2)CCCCC3)CC1	inconclusive: 1.3 µM [falling, full curve]	
CCOC(=O)CSc1nc2sc3c(c2c(=O)n1CC)CC(C)(C)OC3		inconclusive: 28.2%
Cc1ccc(S(=O)(=O)N(C(=O)c2ccncc2)c2ccc(OC(=O)c3ccncc3)cc2)cc1	inconclusive: 29.1 µM [falling, single point]	
Cc1cc(C)n(C(=O)c2ccc(NC(=O)C3COc4ccccc4O3)cc2)n1 (configuration not stated)		inconclusive: 17.5%
O=C(Nc1cc(-c2nc3ncccc3o2)ccc1Cl)c1ccco1	inconclusive: 23.1 µM [falling, partial curve]	
CCCn1c(SCC(=O)c2[nH]c(C)c(C(C)=O)c2C)n[nH]c1=O		inconclusive: 13.1%
Cc1ccc(S(=O)(=O)N2[C@@H](c3ccc(Cl)cc3)C(C(=O)O)=CC[C@H]2c2ccc3c(c2)OCO3)cc1		inconclusive: 6.97%

Compound	Potency	lipid storage change, negative = inhibition
CCOC(=O)C1CCCN(C(=O)c2ccc(Cl)cc2)C1 (configuration not stated)	inconclusive: 18.4 µM [rising, single point]	
Cc1noc(C)c1CSc1ccccc1C(=O)N(C)CC(=O)Nc1cccc(F)c1		inconclusive: 9.81%
COc1cc(/C=C/C(=O)Nc2ccc(C)cc2)cc(OC)c1OC		inconclusive: -6.16%
CC1CN=C(N(C(=S)Nc2ccccc2)c2cccc(C(F)(F)F)c2)S1 (configuration not stated)		inconclusive: -10.4%
COc1ccc(CCNC(=O)c2ccc(CS(=O)Cc3ccc(Cl)cc3)o2)cc1OC (configuration not stated)		inconclusive: -1.66%
CCOC(=O)c1sc(-c2ccc(C)cc2)c(C#N)c1C		inconclusive: 27.4%
CCOc1ccc(C(C)=O)cc1COc1cccnc1[N+](=O)[O-]	inconclusive: 29.1 µM [activator, single point]	
CCN(CC)C(=O)C1CCN(Cc2ccc(Br)cc2)CC1		inconclusive: 16.7%
Cn1c(/C(C#N)=C/Nc2ccccn2)nc2ccccc21	inconclusive: 2.59 µM [rising, partial curve]	
CC(NC(=O)COC(=O)c1ccc2c(c1)OCO2)c1ccccc1 (configuration not stated)	inconclusive: 0.058 µM [activator, full curve, poor fit]	
CC(C)(C)C(=O)O/N=C(\N)COc1cccc(Cl)c1		inconclusive: -10.3%
CCN(Cc1ccccc1)C(=O)CSc1ncn[nH]1	inconclusive: 6.51 µM [falling, single point]	
CC1CCCCC12NC(=O)N(Cn1nnc3ccccc3c1=O)C2=O (configuration not stated)	inconclusive: 0.731 µM [activator, full curve]	
Cc1ccc(S(=O)(=O)N2CCCOC2CNC(=O)C(=O)NCCC2=CCCCC2)cc1 (configuration not stated)		inconclusive: 1.92%
O=Cc1cn(CC(=O)N2CCCCCC2)c2ccccc12		inconclusive: 6.56%
C/C(=C\C(=O)c1ccccc1)Nc1ccc2c(c1)OCO2		inconclusive: -44.2%
CSc1cccc(NC(=O)c2c(Cl)cnn2C)c1		inconclusive: 16.1%
CCN(CCCNC(=O)C1CCCN(S(=O)(=O)CC)C1)c1cccc(C)c1 (configuration not stated)	inconclusive: 18.4 µM [activator, single point]	
Cc1ccc(OCC(=O)Nc2cc(S(=O)(=O)N3CCOCC3)ccc2N2CCCC2)cc1		inconclusive
Cc1cc(OCC(=O)NC(C)C)ccc1Cl		inconclusive: 17.8%
COCCSc1nnc(NC(=O)c2ccc(NC(=O)C(C)C)cc2)s1	inconclusive: 6.51 µM [falling, single point]	
O=C(NCCCCNC(=O)c1ccc(Br)s1)c1ccc(Br)s1		inconclusive: 271%
Cc1ccc(C)c(N2CCN(C(=O)Cc3ccc(-n4c(=O)[nH]c5ccsc5c4=O)cc3)CC2)c1	inconclusive: 16.4 µM [activator, single point]	
CCC(NS(=O)(=O)c1ccc(OC)cc1)C(=O)NCCC1=CCCCC1 (configuration not stated)		inconclusive: -42.7%
COC(=O)c1cccnc1-n1c(=O)c2cccnc2n(Cc2cccc(OC)c2)c1=O		inconclusive: 45.3%
